By UniProt entry, the sequences of proteins in these tests, tags left out. Where a name states a change or a piece, a line headed by the entry shows the natural chain unless it says otherwise.
UniProt P0A6F5: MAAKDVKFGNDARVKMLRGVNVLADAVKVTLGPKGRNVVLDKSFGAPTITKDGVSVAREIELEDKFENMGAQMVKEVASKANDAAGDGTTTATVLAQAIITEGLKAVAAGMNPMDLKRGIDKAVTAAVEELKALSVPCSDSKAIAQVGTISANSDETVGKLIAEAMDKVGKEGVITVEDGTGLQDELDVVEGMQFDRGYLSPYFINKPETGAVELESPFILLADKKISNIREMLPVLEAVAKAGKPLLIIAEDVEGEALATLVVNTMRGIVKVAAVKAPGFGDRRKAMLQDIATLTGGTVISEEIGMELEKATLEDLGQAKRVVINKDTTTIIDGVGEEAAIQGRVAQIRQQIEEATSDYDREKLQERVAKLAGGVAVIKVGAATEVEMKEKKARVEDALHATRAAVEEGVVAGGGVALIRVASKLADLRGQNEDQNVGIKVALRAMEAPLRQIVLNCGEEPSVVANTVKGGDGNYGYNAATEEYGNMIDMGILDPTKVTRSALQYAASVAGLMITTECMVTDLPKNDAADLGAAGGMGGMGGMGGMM
UniProt P19224: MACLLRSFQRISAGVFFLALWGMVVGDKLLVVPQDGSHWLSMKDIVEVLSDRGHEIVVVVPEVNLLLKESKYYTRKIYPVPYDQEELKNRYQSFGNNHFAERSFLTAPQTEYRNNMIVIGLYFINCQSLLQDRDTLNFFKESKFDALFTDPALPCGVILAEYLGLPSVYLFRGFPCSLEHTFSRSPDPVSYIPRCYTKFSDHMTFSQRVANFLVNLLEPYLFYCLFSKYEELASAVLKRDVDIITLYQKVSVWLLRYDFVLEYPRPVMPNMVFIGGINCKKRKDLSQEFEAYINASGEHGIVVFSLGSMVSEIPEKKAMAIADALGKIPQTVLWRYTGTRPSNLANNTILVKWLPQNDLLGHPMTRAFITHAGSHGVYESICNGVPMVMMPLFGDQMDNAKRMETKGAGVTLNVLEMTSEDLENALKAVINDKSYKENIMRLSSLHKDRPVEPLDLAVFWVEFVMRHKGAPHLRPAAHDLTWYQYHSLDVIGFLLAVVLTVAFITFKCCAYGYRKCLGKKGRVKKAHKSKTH

According to article doi:10.1101/2022.09.15.508192:

Target: Escherichia coli chaperonin GroEL (Escherichia coli) (UniProt P0A6F5)
Assay: cryo-EM structure

His6-TrxA-tagged water-soluble domain of human UDP glucuronosyltransferase 1A (UGT1A) (from UniProt P19224) (domain or fragment)
binding: binds

No constants are given. Whether binding was seen depends on the method and setting. Binding seen in cells or lysates may run through a third protein. A result given as binding can be weak or reduced; the word gives no strength.
